# Laboratory results published in publication PMC10291182.
# Key:
# [1] = system: GST-LcCBF3 (Litchi chinensis); test: competition with a labelled probe; conditions: mutated probe did not compete with labeled N1; LightShift chemiluminescent EMSA kit, room temperature, 6% native polyacrylamide gel; salt and pH not stated; recombinant protein; protein details: GST (pGEX-4T-1, N-terminal)
# [2] = system: GST-LcCBF3 (Litchi chinensis); test: EMSA; conditions: unlabeled probe competes; LightShift chemiluminescent EMSA kit, room temperature, 6% native polyacrylamide gel; salt and pH not stated; recombinant protein; protein details: GST (pGEX-4T-1, N-terminal)
# GST = test: EMSA; conditions: GST alone; LightShift chemiluminescent EMSA kit, room temperature, 6% native polyacrylamide gel; salt and pH not stated; recombinant protein
Sequence,binding result [1],binding result [2],binding result (GST)
GTGACATCAAGAGAAAAAAAAGACGACCAC (double strand) [LcMFTpro probe-mutant],no binding,–,–
GTGACATCAAGAGCCGACAAAGACGACCAC (double strand) [LcMFTpro probe],–,binds,no binding

# The exact form of at least one protein or probe is not confirmed. For part of these data: A negative result means that nothing was seen under these conditions.
